Laboratory results as given in the supplement of paper PMC10849652.
This is one part of the list.

Amino acid sequences for entries named in this document (tags omitted). A change or cut given only in a name is not applied to a line headed by its entry.
UniProt P68036, whole entry, looked up: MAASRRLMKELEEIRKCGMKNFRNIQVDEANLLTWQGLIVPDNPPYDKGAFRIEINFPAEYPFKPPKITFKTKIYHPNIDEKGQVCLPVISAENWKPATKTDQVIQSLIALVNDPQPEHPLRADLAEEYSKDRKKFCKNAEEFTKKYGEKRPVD
UniProt P11441: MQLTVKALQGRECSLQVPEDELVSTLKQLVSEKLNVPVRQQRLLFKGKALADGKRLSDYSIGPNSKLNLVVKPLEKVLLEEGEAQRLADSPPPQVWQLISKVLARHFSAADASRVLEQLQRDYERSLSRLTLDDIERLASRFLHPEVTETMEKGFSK
UniProt Q969M7: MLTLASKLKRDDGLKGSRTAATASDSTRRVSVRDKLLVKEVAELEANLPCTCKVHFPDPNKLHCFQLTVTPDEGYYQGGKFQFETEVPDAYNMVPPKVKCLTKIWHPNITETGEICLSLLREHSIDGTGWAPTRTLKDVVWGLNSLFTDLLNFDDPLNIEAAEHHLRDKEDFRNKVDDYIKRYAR
UniProt Q9NRR5, whole entry, looked up: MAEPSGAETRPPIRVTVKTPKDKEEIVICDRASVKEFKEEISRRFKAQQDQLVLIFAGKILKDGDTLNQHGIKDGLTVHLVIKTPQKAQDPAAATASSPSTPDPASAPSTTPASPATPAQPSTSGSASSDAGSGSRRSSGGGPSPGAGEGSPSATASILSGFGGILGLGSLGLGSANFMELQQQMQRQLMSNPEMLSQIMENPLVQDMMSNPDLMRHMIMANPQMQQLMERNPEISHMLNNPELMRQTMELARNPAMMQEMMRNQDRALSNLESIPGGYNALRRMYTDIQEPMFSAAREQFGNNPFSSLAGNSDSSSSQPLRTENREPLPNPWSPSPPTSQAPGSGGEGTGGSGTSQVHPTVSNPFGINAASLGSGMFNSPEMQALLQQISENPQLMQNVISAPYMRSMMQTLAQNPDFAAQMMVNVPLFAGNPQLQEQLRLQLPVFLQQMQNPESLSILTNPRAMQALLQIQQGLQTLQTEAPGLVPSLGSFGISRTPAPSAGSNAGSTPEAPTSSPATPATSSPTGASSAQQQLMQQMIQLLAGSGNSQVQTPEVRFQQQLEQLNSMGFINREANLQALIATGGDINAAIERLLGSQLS
UniProt P68371, whole entry, looked up: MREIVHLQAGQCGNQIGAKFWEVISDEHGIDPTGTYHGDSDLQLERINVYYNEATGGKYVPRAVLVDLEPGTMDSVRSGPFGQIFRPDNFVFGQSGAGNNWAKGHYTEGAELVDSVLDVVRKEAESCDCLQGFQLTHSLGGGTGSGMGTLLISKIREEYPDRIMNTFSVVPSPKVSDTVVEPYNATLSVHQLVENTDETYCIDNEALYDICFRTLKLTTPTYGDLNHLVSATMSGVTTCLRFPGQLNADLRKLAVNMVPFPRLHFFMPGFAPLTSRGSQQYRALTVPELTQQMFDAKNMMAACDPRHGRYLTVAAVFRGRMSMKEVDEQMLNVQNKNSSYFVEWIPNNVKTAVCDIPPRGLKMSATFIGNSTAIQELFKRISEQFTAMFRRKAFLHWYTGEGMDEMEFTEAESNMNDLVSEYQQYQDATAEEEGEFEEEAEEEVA
UniProt P22314: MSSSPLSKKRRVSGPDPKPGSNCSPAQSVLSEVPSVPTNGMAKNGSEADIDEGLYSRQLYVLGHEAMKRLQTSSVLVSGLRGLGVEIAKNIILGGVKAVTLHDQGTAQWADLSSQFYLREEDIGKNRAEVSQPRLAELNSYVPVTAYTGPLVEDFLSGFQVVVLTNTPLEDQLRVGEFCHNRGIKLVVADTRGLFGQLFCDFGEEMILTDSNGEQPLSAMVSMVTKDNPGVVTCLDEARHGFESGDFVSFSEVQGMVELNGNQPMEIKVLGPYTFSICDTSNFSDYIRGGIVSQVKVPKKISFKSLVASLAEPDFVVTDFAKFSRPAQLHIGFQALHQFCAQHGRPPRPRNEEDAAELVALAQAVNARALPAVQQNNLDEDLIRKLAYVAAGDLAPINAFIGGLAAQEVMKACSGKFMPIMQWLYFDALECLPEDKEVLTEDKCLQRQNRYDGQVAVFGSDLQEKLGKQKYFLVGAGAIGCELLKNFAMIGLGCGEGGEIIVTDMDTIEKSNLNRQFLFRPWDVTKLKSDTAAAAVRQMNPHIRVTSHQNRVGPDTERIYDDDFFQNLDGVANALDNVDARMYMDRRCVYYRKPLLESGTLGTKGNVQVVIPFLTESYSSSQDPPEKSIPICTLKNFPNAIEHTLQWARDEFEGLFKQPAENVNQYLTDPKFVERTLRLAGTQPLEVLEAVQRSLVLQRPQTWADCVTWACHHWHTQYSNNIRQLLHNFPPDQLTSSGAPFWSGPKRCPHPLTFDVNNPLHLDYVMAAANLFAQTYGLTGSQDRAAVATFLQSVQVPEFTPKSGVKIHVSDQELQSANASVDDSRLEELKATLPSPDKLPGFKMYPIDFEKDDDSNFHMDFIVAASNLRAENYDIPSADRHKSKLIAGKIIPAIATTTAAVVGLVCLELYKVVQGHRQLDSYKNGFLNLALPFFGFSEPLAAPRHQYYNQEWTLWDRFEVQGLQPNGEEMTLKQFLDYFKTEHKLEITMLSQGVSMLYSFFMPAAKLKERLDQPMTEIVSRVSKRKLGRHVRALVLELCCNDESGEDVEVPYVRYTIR
UniProt Q96J42: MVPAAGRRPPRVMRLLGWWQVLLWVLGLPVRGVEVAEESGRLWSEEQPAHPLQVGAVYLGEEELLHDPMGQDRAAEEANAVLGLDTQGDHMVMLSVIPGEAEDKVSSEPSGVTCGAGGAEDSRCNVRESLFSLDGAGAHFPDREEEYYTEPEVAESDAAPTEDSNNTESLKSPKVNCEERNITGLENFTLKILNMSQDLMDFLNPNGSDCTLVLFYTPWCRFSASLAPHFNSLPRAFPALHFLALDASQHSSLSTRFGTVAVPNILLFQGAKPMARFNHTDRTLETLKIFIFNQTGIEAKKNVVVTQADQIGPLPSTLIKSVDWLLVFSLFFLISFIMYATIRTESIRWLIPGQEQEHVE
UniProt Q15819: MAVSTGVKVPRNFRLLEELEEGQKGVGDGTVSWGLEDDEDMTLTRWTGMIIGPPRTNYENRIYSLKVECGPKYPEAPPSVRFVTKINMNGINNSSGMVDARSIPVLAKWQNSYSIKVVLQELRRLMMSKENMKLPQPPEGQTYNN
UniProt Q3B726, whole entry, looked up: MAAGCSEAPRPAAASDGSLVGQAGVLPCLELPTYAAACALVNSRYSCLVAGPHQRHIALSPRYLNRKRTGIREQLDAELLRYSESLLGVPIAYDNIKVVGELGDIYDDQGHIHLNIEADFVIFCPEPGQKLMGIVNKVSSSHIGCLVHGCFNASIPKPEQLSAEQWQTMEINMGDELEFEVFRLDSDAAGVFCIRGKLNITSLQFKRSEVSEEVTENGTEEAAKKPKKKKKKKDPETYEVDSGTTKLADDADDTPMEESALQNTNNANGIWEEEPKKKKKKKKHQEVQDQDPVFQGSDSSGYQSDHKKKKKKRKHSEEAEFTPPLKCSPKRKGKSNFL
UniProt Q14157: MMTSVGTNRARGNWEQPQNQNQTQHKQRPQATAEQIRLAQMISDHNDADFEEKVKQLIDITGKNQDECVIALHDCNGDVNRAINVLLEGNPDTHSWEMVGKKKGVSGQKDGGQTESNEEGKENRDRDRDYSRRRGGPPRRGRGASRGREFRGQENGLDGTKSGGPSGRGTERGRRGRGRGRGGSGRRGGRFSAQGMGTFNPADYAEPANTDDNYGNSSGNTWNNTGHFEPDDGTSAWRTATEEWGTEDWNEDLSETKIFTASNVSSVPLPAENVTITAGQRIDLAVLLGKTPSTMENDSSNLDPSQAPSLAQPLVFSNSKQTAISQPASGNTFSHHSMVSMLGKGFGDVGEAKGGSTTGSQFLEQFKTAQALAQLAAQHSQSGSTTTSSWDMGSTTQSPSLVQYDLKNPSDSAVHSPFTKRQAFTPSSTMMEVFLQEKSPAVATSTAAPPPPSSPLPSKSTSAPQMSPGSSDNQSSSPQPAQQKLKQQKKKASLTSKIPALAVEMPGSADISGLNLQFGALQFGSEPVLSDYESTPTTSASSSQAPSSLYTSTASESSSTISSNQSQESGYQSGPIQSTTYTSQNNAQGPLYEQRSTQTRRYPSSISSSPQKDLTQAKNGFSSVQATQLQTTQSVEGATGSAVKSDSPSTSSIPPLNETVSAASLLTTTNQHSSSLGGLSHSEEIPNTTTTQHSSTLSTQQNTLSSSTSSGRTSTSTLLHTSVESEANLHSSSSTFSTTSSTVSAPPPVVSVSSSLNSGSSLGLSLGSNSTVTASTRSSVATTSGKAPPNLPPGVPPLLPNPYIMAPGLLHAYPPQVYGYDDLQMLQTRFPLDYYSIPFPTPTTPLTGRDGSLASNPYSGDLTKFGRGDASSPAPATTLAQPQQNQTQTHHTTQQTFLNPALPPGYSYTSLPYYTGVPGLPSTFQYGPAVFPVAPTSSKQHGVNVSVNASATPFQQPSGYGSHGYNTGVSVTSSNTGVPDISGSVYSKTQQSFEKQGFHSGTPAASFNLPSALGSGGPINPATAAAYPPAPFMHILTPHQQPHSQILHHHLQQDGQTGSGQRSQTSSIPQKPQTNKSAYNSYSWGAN
UniProt P61088: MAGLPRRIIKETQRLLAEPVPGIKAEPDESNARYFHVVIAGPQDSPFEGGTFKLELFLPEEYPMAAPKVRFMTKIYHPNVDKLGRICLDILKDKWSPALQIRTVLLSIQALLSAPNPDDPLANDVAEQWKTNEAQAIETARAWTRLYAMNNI
UniProt P15374: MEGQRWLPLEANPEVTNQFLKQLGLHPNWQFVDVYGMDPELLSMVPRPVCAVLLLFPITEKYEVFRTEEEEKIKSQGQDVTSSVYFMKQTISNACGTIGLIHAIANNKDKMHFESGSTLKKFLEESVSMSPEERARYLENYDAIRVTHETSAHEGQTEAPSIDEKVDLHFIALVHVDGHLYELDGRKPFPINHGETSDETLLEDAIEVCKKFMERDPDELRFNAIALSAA
UniProt P51965: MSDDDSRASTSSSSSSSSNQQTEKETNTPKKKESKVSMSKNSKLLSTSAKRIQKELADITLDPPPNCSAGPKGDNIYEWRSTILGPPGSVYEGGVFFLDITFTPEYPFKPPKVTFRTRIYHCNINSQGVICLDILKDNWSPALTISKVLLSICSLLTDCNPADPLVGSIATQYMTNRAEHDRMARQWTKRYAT
UniProt Q13885, whole entry, looked up: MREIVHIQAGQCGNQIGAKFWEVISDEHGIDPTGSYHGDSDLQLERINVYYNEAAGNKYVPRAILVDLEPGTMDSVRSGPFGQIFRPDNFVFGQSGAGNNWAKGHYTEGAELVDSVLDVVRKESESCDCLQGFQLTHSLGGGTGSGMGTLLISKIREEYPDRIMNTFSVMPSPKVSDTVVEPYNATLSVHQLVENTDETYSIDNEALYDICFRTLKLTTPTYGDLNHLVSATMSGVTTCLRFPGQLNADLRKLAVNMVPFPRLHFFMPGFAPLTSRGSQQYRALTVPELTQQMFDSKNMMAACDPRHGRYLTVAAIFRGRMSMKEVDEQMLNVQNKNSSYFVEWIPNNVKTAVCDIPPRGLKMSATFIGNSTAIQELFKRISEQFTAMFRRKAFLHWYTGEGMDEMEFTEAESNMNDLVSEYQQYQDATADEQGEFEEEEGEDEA
UniProt P61077: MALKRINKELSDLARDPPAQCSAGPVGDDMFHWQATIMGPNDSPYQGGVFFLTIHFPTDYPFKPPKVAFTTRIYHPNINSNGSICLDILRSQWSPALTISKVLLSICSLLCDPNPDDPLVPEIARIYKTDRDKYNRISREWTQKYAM
UniProt Q9BTX7: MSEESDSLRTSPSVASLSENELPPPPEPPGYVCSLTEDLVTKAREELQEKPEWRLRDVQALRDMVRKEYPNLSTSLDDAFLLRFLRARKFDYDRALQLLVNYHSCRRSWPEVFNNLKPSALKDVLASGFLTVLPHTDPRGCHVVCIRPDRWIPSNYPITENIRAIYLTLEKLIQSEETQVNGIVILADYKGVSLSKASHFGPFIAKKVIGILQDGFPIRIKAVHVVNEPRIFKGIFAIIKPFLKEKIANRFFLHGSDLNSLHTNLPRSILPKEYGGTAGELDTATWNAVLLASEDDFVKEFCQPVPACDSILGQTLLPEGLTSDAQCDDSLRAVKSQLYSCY
UniProt Q8TBC4: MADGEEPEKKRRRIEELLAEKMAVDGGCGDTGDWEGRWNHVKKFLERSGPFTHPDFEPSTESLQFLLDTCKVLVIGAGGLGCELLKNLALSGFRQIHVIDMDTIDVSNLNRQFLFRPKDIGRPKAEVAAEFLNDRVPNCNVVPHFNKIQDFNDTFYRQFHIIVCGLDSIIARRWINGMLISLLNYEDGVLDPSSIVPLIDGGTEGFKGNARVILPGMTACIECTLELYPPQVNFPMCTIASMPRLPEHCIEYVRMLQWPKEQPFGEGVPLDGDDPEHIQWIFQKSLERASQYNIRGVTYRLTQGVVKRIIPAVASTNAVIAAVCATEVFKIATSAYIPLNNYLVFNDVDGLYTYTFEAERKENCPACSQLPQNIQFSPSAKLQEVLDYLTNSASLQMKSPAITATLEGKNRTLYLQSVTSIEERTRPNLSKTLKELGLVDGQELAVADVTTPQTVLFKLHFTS

Columns and labels:
Experiment in all cases: log2 fold change, soluble protein after heating vs DMSO (PISA); higher = thermal stabilisation; K562 lysate, 10 uM; active = over 0.2 and 3.5 SD of the protein, either way, in both replicates (recomputed)
ibrutinib = compound: C=CC(=O)N1CCC[C@@H](n2nc(-c3ccc(Oc4ccccc4)cc3)c3c(N)ncnc32)C1 [ibrutinib]
In short: (§1)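 Dounce homogenisation of K562 pellets in PBS pH 7.4 with 1 mM MgCl2 produced a crude extract, used at 1 mg/mL protein. Exposure to 10 μM compound lasted 30 min, and aliquots were then heated for 3 min across 48°C-58°C, pooled and brought to 0.5% NP-40 at 4°C. The supernatant after 21,000xg for 90 min was quantified by TMTpro 16plex LC-MS/MS with channel sums equalised. Duplicate values are given as log-two fold change in thermal stability relative to solvent controls.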

[1] = compound: CC(=O)c1cnc2ccc(-c3cc(Cl)c(O)c(Cl)c3)nc2c1N[C@H]1CC[C@H](CN(C)C)CC1
In short: as §1

ralimetinib = compound: CC(C)(C)Cn1c(N)nc2ccc(-c3[nH]c(C(C)(C)C)nc3-c3ccc(F)cc3)nc21 [ralimetinib]
In short: as §1

[2] = compound: CC(C)(O)CC(=O)NCCn1ccc2ncnc(Nc3ccc(Oc4cccc(C(F)(F)F)c4)c(Cl)c3)c21
In short: as §1

[3] = compound: CC(C)C1=C2N=C(C=C(N2N=C1)NCC3=CC=CC=C3)NCCCCCCN
In short: as §1

[4] = compound: CC1=C(C(CC(=O)N1)C2=CC=C(C=C2)C(F)(F)F)C(=O)NC3=C(C=C4C(=C3)C=NN4)F
In short: as §1

[5] = compound: CC1=C(C2=C(C=C1)C(=O)C3=CC=CC=C3N2CCCN)C
In short: as §1

[6] = compound: CC1=C(C=C(C=C1)NC(=O)C2=CC(=CC=C2)C(C)(C)C#N)NC3=CC4=C(C=C3)N=CN(C4=O)C
In short: as §1

[7] = compound: CC1=C(C=C(C=C1)NC(=O)C2=CC(=CC=C2)N(C)C)NC(=O)C3=CC=C(C=C3)O
In short: as §1

[8] = compound: CC1=CC=C(C=C1)SC2=C3C=C(SC3=CN=C2)C(=O)N
In short: as §1

Measured: log2 fold change

UBE2L3 isoform 3 (UniProt P68036)
inactive: ibrutinib -0.065 | [1] 0.019 | ralimetinib -0.019 | [2] 0.008 | [3] 0.017 | [4] -0.038 | [5] -0.002 | [6] 0 | [7] -0.007 | [8] 0.007

TXNL4A (UniProt P83876)
inactive: ibrutinib -0.026 | [1] -0.009 | ralimetinib -0.019 | [2] -0.041 | [3] -0.03 | [4] -0.003 | [5] 0.027 | [6] -0.002 | [7] 0.007 | [8] 0.002

UBL4A (UniProt P11441)
inactive: ibrutinib 0.056 | [1] 0.055 | ralimetinib 0 | [2] 0.049 | [3] 0.009 | [4] -0.023 | [5] -0.02 | [6] -0.044 | [7] -0.002 | [8] 0.025

UBE2F isoform 2 (UniProt Q969M7)
inactive: ibrutinib 0.052 | [1] 0.054 | ralimetinib -0.114 | [2] -0.019 | [3] 0.053 | [4] 0.054 | [5] 0.003 | [6] 0.079 | [7] 0.077 | [8] -0.023

UBQLN4 (UniProt Q9NRR5)
inactive: ibrutinib 0.175 | [1] 0.006 | ralimetinib 0.019 | [2] -0.036 | [3] 0.012 | [4] -0.014 | [5] -0.023 | [6] 0.024 | [7] 0.017 | [8] -0.01

TXNL4B (UniProt Q9NX01)
inactive: ibrutinib 0.157 | [1] 0.002 | ralimetinib -0.013 | [2] -0.014 | [3] -0.034 | [4] 0.002 | [5] 0 | [6] 0.043 | [7] -0.033 | [8] 0.061

TUBA4A (UniProt P68366)
inactive: ibrutinib -0.012 | [1] 0.023 | ralimetinib 0.012 | [2] 0.017 | [3] 0.023 | [4] -0.031 | [5] -0.013 | [6] 0.017 | [7] -0.017 | [8] 0.012

TUBB4B (UniProt P68371)
inactive: ibrutinib -0.012 | [1] 0.029 | ralimetinib 0.026 | [2] 0.029 | [3] 0.02 | [4] 0.011 | [5] 0.022 | [6] -0.05 | [7] 0.035 | [8] 0.018

UBE2T (UniProt Q9NPD8)
inactive: ibrutinib -0.007 | [1] 0.031 | ralimetinib 0.009 | [2] 0.004 | [3] -0.054 | [4] -0.01 | [5] -0.009 | [6] 0.032 | [7] 0 | [8] 0.026

UBA1 (UniProt P22314)
inactive: ibrutinib -0.002 | [1] 0.003 | ralimetinib 0.053 | [2] 0 | [3] 0.027 | [4] -0.018 | [5] 0.006 | [6] 0 | [7] 0.015 | [8] 0.02

UBR1 (UniProt Q8IWV7)
inactive: ibrutinib 0.007 | [1] 0.005 | ralimetinib 0.015 | [2] -0.044 | [3] -0.014 | [4] -0.011 | [5] 0.004 | [6] -0.004 | [7] -0.03 | [8] -0.008

TXNDC15 (UniProt Q96J42)
inactive: ibrutinib -0.059 | [1] -0.002 | ralimetinib -0.014 | [2] -0.044 | [3] -0.017 | [4] 0.021 | [5] 0.031 | [6] 0.068 | [7] 0.019 | [8] -0.035

UBXN1 (UniProt Q04323)
inactive: ibrutinib -0.007 | [1] -0.006 | ralimetinib 0.031 | [2] -0.028 | [3] -0.014 | [4] -0.033 | [5] -0.013 | [6] -0.006 | [7] 0.032 | [8] -0.023

UBE2V2 (UniProt Q15819)
inactive: ibrutinib 0.064 | [1] 0.015 | ralimetinib 0.004 | [2] 0.021 | [3] 0.005 | [4] -0.02 | [5] 0.033 | [6] -0.004 | [7] -0.006 | [8] -0.002

2 entries drawn at random from the list so far:
TUBA4A (UniProt P68366)
inactive: ibrutinib -0.012 | [1] 0.023 | ralimetinib 0.012 | [2] 0.017 | [3] 0.023 | [4] -0.031 | [5] -0.013 | [6] 0.017 | [7] -0.017 | [8] 0.012

UBE2L3 isoform 3 (UniProt P68036)
inactive: ibrutinib -0.065 | [1] 0.019 | ralimetinib -0.019 | [2] 0.008 | [3] 0.017 | [4] -0.038 | [5] -0.002 | [6] 0 | [7] -0.007 | [8] 0.007

The list continues:

TWISTNB (UniProt Q3B726)
inactive: ibrutinib 0.033 | [1] -0.057 | ralimetinib 0.023 | [2] -0.026 | [3] 0.048 | [4] -0.029 | [5] 0.007 | [6] -0.051 | [7] -0.015 | [8] 0.003

UBP1 (UniProt Q9NZI7)
inactive: ibrutinib -0.006 | [1] 0.056 | ralimetinib 0.024 | [2] -0.004 | [3] 0.048 | [4] -0.028 | [5] 0.047 | [6] 0.03 | [7] -0.037 | [8] 0.004

UBAP2L isoform 5 (UniProt Q14157)
inactive: ibrutinib 0.024 | [1] 0.028 | ralimetinib -0.026 | [2] -0.055 | [3] 0.019 | [4] 0.009 | [5] 0.024 | [7] -0.009 | [8] 0.003
active: [6] -0.529

TXNDC17 (UniProt Q9BRA2)
inactive: ibrutinib -0.055 | [1] 0.001 | ralimetinib -0.019 | [2] -0.017 | [3] 0.019 | [4] -0.013 | [5] 0.005 | [6] -0.001 | [7] -0.023 | [8] 0.009

UBE2N (UniProt P61088)
inactive: ibrutinib 0.11 | [1] 0.004 | ralimetinib 0.001 | [2] -0.015 | [3] -0.004 | [4] -0.06 | [5] 0.009 | [6] 0.053 | [7] 0.001 | [8] 0.019

UCHL3 (UniProt P15374)
inactive: ibrutinib 0.041 | [1] 0.013 | ralimetinib 0.035 | [2] 0.059 | [3] 0 | [4] 0.003 | [5] 0.049 | [6] -0.044 | [7] -0.011 | [8] 0.035

UBR3 isoform 4 (UniProt Q6ZT12)
inactive: ibrutinib -0.002 | [1] -0.023 | ralimetinib 0.107 | [2] -0.009 | [3] 0.005 | [4] 0.006 | [5] -0.055 | [6] -0.016 | [7] 0.013 | [8] 0.021

UBE2E1 (UniProt P51965)
inactive: ibrutinib 0.034 | [1] 0.036 | ralimetinib -0.088 | [2] 0.139 | [3] 0 | [4] -0.091 | [5] -0.059 | [6] -0.208 | [7] -0.085 | [8] 0.086

TUBB2A (UniProt Q13885)
inactive: ibrutinib 0.005 | [1] 0.014 | ralimetinib 0.032 | [2] -0.005 | [3] 0.027 | [4] 0.02 | [5] 0.001 | [6] -0.011 | [7] 0.032 | [8] 0.001

UAP1 (UniProt Q16222)
inactive: ibrutinib -0.011 | [1] 0.004 | ralimetinib 0.027 | [2] 0.009 | [3] 0.013 | [4] -0.004 | [5] 0.008 | [6] -0.009 | [7] -0.01 | [8] 0.027

UBE4A isoform 2 (UniProt Q14139)
inactive: ibrutinib -0.025 | [1] 0.018 | ralimetinib 0.038 | [2] -0.038 | [3] -0.023 | [4] 0.03 | [5] 0.019 | [6] -0.009 | [7] 0.034 | [8] -0.009

UBE2D3 isoform 3 (UniProt P61077)
inactive: ibrutinib 0.033 | [1] 0.014 | ralimetinib -0.026 | [2] -0.041 | [3] -0.013 | [4] -0.016 | [5] -0.029 | [6] 0.068 | [7] -0.005 | [8] -0.028

UBXN7 (UniProt O94888)
inactive: ibrutinib -0.009 | [1] -0.006 | ralimetinib 0.007 | [2] -0.023 | [3] 0.009 | [4] 0.017 | [5] -0.004 | [6] -0.02 | [7] -0.001 | [8] -0.027

TTPAL (UniProt Q9BTX7)
inactive: ibrutinib 0 | [1] -0.021 | ralimetinib -0.029 | [2] -0.084 | [3] -0.065 | [4] -0.052 | [5] 0.046 | [6] 0.015 | [7] -0.041 | [8] -0.018

UBA3 (UniProt Q8TBC4)
inactive: ibrutinib 0.006 | [1] 0.015 | ralimetinib 0.016 | [2] -0.009 | [3] -0.013 | [4] -0.004 | [5] -0.018 | [6] -0.021 | [7] 0.006 | [8] 0.002

TTN isoform 12 (UniProt Q8WZ42)
inactive: ibrutinib 0.019 | [1] -0.05 | ralimetinib -0.017 | [2] -0.059 | [3] 0.014 | [4] -0.009 | [5] -0.05 | [6] 0.123 | [7] 0.013 | [8] -0.047
